This assay concerns the target High-light-inducible protein D (native) (Synechocystis sp. PCC 6803 (endogenous in Synechocystis)) (UniProt P72932). The experiment in a line: co-IP; f.ChlG isolated with anti-FLAG resin from membranes solubilised with 1% n-dodecyl-β-D-maltoside and 1% glycol-diosgenin; eluate resolved by 2D CN (A8-35 amphipol)/SDS-PAGE, CBB stain; strains f.chlG/ΔchlG (HL 2 h), f.chlG/ΔchlG/ΔhliC (HL 2 h), f.chlG/ΔchlG/ΔhliC/Δycf39 (NL).

Among the data in paper PMC12142464, “High-light-inducible proteins control associations between chlorophyll synthase and the Photosystem II biogenesis factor Ycf39” (Plant Physiology, 2025) are binding values, retold here.

Results are given in words; binding and its absence hold for the method and conditions named. In cells and extracts the contact can be indirect. Some results given as binding are weak or reduced against the parent protein; the word gives no strength.

B1: High-light-inducible protein D (native) (natural protein, UniProt P72932 1-57, looked up)
chain: MSEELQPNQTPVQEDPKFGFNNYAEKLNGRAAMVGFLLILVIEYFTNQGVLAWLGLR
notes: High-light-inducible protein HliD (6.5 kDa), Synechocystis sp; PCC 6803; also called HliD; ScpE; source: endogenous, Synechocystis solubilised membranes
In the case of B1, the binding result was “binds”.
